Patent US20230192896A1
Residue numbers refer to the chain shown, from its start. Results are given in words; binding and its absence hold for the method and conditions named. For some of these results: Binding can be weak; no strength is given. Values belong to the binder of their own block, whether it stands above or below them.

Experiments:
[1] = biological target: FIX zymogen (non-activatable FIX) (human); assay: BLI, IgG on AHQ sensor
[2] = biological target: FIX zymogen (non-activatable FIX) (human); assay: BLI; class meaning: paragraph 914
[3] = biological target: FIX zymogen (non-activatable FIX) (human); assay: BLI, IgG on AHQ sensor, 100 nM antigen
[4] = biological target: zymogen FX with the activation peptide lacking (FX-AP); assay: BLI, antibody on AHQ sensor
[5] = biological target: activated FX which retains the activation peptide (FXa+AP); assay: BLI, antibody on AHQ sensor, 250 nM FX variant
[6] = biological target: zymogen FIX which contains the activation peptide from FX (FIX+FX AP); assay: BLI, antibody on AHQ sensor, 250 nM FX variant

B1: BIIB-9-397 (antibody, V domains shown)
VH: QVQLQESGPGLVKPSETLSLTCAVSGYSISSGYYWAWIRQPPGKGLEWIGSIYHSGSTYYNPSLKSRVTISVDTSKNQFSLKLSSVTAADTAVYYCARDVWYVGGFDPWGQGTLVTVSS
VL: DIQMTQSPSSLSASVGDRVTITCQASQDISNYLNWYQQKPGKAPKLLIYDASNLETGVPSRFSGSGSGTDFTFTISSLQPEDIATYYCQQSDDHPPTFGGGTKVEIK
binding [1]: binds | binding [2]: binds | binding [3]: binds

B2: BIIB-9-578 (antibody, V domains shown)
VH: QLQLQESGPGLVKPSETLSLTCTVSGGSISSSSYYWGWIRQPPGKGLEWIGSISYSGSTYYNPSLKSRVTISVDTSKNQFSLKLSSVTAADTAVYYCARDKYQDYSFDIWGQGTMVTVSS
VL: DIQMTQSPSSVSASVGDRVTITCRASQGIDSWLAWYQQKPGKAPKLLIYAASSLQSGVPSRFSGSGSGTDFTLTISSLQPEDFATYYCQQANFLPFTFGGGTKVEIK
binding [2]: binds | binding [3]: binds

Now from value to binder:

binding [2]: binds | binding [3]: binds
B3: BIIB-9-631 (antibody, V domains shown)
VH: QVQLVQSGAEVKKPGASVKVSCKASGYTFTSYYMHWVRQAPGQGLEWMGIINPSGGSTSYAQKFQGRVTMTRDTSTSTVYMELSSLRSEDTAVYYCARAENRGDYEAWGQGTLVTVSS
VL: B2 VL with D30S, S31R, A91R, N92T, F93S, L94F, F96L

binding [4]: no binding (tested: 250 nM) | binding [5]: binds | binding [6]: binds
B4: BIIB-12-917 (antibody, V domains shown)
VH: EVQLVQSGAEVKKPGESLKISCKGSGYSFTTYWIGWVRQMPGKGLEWMGIIYPGDSDTRYSPSFQGQVTISADKSISTAYLQWSSLKASDTAMYYCARGRFRPRGRFDYWGQGTLVTVSS
VL: EIVMTQSPATLSVSPGERATLSCRASQSVSSNLAWYQQKPGQAPRLLIYGASTRATGIPARFSGSGSGTEFTLTISSLQSEDFAVYYCQQLFNHPPTFGGGTKVEIK
